# The list shows a part of the results. Most values lie at the level of the controls, where differences are scatter.
# Chains of the proteins cited; added tags and fusions are not shown. Lines headed by an entry give the natural chain unless they say otherwise; changes in a name come on top.
# UniProt Q53H80, whole entry: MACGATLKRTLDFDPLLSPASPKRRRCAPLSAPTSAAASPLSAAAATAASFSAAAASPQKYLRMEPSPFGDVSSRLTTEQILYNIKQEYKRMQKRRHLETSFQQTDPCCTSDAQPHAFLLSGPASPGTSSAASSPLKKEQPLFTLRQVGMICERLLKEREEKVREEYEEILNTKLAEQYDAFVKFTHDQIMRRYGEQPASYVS
# UniProt Q5T035: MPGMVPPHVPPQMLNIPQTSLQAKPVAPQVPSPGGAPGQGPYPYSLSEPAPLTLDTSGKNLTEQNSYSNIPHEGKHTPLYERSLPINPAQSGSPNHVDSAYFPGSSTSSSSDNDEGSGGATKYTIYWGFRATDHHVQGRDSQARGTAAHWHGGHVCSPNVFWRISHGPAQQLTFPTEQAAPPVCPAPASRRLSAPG
# UniProt Q5TC12: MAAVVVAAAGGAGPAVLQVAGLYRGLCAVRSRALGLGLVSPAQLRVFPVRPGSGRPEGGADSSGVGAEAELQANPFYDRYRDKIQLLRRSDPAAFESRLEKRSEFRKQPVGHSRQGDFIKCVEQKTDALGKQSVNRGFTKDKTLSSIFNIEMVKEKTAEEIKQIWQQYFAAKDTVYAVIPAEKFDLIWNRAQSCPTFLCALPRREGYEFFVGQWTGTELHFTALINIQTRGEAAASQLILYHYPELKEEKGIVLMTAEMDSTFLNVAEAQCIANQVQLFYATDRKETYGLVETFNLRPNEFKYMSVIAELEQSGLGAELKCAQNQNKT
# UniProt Q4G148: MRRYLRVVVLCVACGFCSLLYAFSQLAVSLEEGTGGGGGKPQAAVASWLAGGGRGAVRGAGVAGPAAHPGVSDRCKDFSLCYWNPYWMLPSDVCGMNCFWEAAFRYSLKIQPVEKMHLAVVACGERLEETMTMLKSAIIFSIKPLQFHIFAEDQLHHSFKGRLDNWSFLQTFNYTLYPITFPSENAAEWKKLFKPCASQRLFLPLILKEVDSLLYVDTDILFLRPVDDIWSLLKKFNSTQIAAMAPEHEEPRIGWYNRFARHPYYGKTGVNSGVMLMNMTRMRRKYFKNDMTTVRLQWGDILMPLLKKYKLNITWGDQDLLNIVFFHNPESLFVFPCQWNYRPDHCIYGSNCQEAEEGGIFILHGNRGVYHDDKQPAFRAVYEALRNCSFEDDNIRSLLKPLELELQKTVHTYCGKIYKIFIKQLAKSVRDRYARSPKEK
# UniProt Q52LR7, whole entry: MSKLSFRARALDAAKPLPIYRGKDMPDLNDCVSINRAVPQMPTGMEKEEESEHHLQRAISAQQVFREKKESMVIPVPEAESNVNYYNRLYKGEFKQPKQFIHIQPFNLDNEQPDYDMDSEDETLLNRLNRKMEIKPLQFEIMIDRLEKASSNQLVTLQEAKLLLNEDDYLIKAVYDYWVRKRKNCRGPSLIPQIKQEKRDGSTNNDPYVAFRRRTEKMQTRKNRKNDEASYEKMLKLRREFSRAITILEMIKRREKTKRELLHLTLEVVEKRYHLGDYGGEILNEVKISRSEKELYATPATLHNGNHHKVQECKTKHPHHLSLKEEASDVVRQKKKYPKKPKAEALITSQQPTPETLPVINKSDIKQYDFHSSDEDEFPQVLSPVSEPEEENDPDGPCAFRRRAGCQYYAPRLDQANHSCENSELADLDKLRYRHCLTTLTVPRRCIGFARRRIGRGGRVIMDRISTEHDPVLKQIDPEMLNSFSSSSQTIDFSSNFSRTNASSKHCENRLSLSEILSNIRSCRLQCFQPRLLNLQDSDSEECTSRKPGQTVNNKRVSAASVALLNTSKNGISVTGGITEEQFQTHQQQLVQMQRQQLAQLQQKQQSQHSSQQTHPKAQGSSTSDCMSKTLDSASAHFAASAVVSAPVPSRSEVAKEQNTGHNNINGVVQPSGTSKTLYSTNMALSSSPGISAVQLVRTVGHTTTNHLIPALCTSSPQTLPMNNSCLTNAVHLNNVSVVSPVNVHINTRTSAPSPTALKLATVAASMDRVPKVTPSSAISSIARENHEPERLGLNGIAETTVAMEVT
# UniProt Q5T089: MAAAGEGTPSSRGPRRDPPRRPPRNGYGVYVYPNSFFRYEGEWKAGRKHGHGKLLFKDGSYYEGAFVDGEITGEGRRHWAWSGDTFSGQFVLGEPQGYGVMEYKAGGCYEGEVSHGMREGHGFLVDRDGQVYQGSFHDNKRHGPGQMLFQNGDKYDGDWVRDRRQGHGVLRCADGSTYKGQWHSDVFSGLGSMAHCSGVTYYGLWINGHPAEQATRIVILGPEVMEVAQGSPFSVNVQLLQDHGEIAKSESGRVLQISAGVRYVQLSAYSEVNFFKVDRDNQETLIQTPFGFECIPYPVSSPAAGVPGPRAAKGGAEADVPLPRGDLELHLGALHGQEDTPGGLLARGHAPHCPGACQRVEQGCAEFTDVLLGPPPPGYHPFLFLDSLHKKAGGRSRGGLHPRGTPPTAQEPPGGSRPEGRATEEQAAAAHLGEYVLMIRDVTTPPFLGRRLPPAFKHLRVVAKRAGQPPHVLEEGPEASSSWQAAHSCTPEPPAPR
# UniProt Q5SSJ5: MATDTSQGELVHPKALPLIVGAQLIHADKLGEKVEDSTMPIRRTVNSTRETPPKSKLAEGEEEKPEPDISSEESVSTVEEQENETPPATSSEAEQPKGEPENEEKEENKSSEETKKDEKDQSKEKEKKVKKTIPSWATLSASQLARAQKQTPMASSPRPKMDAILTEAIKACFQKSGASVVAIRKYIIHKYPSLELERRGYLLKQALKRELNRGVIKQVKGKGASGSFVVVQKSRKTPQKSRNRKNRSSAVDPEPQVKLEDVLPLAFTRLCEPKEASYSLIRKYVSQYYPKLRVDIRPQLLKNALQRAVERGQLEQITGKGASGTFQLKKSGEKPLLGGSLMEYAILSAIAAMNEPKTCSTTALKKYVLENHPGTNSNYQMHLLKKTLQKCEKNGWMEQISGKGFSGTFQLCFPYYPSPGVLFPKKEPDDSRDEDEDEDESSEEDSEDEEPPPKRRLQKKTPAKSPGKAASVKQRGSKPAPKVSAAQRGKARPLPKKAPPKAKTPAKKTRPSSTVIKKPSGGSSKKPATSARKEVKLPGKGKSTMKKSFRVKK
# UniProt Q5TKA1: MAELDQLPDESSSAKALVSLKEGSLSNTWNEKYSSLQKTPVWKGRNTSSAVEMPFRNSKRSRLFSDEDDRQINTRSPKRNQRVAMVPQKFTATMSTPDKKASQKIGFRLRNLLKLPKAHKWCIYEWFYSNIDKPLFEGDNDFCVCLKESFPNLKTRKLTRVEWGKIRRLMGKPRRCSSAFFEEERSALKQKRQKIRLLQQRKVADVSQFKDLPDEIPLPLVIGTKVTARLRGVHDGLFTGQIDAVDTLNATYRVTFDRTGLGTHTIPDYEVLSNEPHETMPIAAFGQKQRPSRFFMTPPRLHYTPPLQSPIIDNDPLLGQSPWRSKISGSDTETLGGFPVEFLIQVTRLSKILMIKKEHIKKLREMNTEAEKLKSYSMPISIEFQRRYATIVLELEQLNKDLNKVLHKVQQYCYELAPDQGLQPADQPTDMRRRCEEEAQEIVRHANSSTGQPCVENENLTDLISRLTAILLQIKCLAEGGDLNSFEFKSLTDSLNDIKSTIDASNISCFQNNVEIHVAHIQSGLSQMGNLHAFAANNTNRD
# UniProt Q5HYK3: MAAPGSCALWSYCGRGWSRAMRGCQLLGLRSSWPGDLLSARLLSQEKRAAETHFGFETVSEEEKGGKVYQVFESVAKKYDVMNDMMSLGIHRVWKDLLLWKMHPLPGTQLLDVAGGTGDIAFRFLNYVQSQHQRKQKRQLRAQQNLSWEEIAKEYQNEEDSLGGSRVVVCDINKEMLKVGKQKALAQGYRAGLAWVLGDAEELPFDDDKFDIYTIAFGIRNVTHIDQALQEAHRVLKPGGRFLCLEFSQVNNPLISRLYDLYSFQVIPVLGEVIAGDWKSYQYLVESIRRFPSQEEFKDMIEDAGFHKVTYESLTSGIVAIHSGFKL
# UniProt Q4G0F5, whole entry: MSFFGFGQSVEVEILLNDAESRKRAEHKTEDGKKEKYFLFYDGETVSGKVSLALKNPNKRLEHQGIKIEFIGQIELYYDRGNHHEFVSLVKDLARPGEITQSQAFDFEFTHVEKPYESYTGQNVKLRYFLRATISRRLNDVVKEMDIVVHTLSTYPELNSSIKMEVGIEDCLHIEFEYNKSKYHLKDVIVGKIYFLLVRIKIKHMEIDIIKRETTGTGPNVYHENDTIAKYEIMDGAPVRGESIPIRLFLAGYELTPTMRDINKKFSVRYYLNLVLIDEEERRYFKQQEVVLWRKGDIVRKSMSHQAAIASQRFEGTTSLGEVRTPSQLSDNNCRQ
# UniProt Q5JWF2, whole entry: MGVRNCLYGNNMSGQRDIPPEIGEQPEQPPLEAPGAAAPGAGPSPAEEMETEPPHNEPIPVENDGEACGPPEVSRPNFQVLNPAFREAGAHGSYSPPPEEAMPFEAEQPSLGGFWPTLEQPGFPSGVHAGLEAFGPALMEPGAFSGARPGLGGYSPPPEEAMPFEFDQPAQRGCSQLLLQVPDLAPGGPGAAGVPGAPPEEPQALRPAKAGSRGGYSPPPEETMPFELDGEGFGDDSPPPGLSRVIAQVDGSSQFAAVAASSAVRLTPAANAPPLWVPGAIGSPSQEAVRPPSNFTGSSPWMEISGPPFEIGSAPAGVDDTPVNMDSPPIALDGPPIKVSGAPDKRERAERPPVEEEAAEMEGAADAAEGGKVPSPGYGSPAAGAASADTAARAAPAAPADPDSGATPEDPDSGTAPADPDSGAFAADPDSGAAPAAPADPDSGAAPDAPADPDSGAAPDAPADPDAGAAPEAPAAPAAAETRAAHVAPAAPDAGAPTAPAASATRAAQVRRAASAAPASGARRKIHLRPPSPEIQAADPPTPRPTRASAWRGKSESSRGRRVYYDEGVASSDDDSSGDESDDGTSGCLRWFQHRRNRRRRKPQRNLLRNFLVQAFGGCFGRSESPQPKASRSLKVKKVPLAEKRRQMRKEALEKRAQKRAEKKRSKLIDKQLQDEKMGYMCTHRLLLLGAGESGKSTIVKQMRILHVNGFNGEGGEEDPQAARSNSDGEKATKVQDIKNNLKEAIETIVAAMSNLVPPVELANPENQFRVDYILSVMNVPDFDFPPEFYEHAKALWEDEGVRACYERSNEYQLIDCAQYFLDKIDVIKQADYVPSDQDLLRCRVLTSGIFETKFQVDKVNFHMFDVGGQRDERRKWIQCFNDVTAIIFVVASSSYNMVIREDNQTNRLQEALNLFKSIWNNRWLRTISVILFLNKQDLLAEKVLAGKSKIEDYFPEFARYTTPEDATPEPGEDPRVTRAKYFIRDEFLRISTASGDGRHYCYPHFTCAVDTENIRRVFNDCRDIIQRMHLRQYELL
# UniProt Q5JTH9: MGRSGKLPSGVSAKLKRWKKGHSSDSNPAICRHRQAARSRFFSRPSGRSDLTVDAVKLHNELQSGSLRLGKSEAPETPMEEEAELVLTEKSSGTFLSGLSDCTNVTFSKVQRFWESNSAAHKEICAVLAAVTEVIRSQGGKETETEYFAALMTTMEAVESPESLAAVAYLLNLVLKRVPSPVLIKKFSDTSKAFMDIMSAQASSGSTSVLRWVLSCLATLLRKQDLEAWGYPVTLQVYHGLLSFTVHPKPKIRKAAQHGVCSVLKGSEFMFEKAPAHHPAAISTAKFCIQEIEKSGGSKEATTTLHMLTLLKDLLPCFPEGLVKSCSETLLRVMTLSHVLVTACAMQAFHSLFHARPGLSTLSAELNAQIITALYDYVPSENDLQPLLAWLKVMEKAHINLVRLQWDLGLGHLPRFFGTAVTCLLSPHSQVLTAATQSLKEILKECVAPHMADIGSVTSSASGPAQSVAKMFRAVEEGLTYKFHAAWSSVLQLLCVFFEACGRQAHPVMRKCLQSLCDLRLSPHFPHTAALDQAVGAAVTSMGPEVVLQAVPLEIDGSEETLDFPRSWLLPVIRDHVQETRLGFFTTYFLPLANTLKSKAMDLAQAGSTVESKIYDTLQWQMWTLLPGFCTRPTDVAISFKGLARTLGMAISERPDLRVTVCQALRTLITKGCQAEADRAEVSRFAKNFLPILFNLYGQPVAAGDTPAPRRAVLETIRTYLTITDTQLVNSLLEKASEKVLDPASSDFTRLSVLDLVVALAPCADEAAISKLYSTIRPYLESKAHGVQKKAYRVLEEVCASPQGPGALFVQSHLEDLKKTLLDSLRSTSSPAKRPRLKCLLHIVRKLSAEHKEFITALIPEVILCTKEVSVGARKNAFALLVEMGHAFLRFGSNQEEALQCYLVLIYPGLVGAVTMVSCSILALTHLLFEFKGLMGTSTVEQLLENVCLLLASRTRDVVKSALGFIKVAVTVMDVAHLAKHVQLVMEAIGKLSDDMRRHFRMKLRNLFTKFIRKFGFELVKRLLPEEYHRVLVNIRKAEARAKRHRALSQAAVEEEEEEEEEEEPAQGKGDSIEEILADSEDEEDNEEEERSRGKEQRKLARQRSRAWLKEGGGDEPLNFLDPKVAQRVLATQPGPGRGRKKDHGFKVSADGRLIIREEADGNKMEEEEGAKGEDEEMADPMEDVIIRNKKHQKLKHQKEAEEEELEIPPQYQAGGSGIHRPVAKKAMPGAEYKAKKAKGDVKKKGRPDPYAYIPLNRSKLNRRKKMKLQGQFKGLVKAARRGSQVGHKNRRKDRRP
# Compound: Cc1nc(Nc2ncc(C(=O)Nc3c(C)cccc3Cl)s2)cc(N2CCN(CCO)CC2)n1 [dasatinib]
# Assay: log2 fold change of tryptic peptide abundance, ligand vs vehicle (limited proteolysis) (log2 ratio); higher = more trypsin-susceptible (destabilized)
# Settings: ligand concentration: 5 uM; sample: K562 cleared lysate
row,Target,log2 fold change
1,"AKIRIN2 (peptide sequence: MEPSPFGDVSSR, peptide start residue: 64) (UniProt Q53H80)",-0.195
2,"UniProt Q5T035 (peptide sequence: NLTEQNSYSNIPHEGK, peptide start residue: 411)",0.0747
3,"CAMSAP1 (peptide sequence: FSTFSASK, peptide start residue: 172) (UniProt Q5T5Y3)",-0.564
4,"SNAPC4 (peptide sequence: TLPQASLLASTGPRPKPK, peptide start residue: 874) (UniProt Q5SXM2)",-0.335
5,"ATPAF1 (peptide sequence: SDPAAFESR, peptide start residue: 90) (UniProt Q5TC12)",0.13
6,"UniProt Q5MNZ6 (peptide sequence: QSSLASASFLPK, peptide start residue: 267)",0.169
7,"UniProt Q4G148 (peptide sequence: SLLKPLELELQK, peptide start residue: 397)",0.126
8,"DDI2 (peptide sequence: IDFSSIAVPGTSSPR, peptide start residue: 94) (UniProt Q5TDH0)",0.392
9,"TBCEL (peptide sequence: LDQTVAELKK, peptide start residue: 361) (UniProt Q5QJ74)",-0.624
10,"PAGE2B (peptide sequence: EGIMPTFDLTK, peptide start residue: 92) (UniProt Q5JRK9)",0.0683
11,"UniProt Q5T7W7 (peptide sequence: FSYFPSYVDK, peptide start residue: 332)",-0.27
12,"SMUG1 (peptide sequence: QVQLLGVR, peptide start residue: 201) (UniProt Q53HV7)",-0.183
13,"PSMG4 (peptide sequence: IKEEMEAFPEKF, peptide start residue: 112) (UniProt Q5JS54)",0.172
14,"RBM48 (peptide sequence: NSVACPGAQK, peptide start residue: 254) (UniProt Q5RL73)",-0.35
15,"KLHL22 (peptide sequence: LHDKLDPSPLR, peptide start residue: 257) (UniProt Q53GT1)",-0.58
16,"RBM20 (peptide sequence: ARQPSPFVDDCKTR, peptide start residue: 1056) (UniProt Q5T481)",0.881
17,"TAF1B (peptide sequence: EMVVNLQK, peptide start residue: 448) (UniProt Q53T94)",0.374
18,"RABL3 (peptide sequence: EGNQIPGFPDR, peptide start residue: 212) (UniProt Q5HYI8)",0.0726
19,"EPC2 (peptide sequence: QQLAQLQQK, peptide start residue: 596) (UniProt Q52LR7)",0.73

# 2 records picked at random from the list so far, as already listed:
row,Target,log2 fold change
14,"RBM48 (peptide sequence: NSVACPGAQK, peptide start residue: 254) (UniProt Q5RL73)",-0.35
19,"EPC2 (peptide sequence: QQLAQLQQK, peptide start residue: 596) (UniProt Q52LR7)",0.73

# Going on with the list.

row,Target,log2 fold change
1,"UniProt Q5T089 (peptide sequence: HGPGQMLFQNGDKYDGDWVR, peptide start residue: 142)",-0.179
2,"C6ORF134 (peptide sequence: AQNLSAPITSASR, peptide start residue: 57) (UniProt Q5SQI0)",-0.435
3,"ODF2 (peptide sequence: EQHCKEDSER, peptide start residue: 276) (UniProt Q5BJF6)",0.472
4,"PAN2 (peptide sequence: VGETYHQR, peptide start residue: 874) (UniProt Q504Q3)",0.501
5,"NOL9 (peptide sequence: ITHSDVAPTHILYAVNASWVGLCK, peptide start residue: 559) (UniProt Q5SY16)",0.345
6,"UniProt Q5T280 (peptide sequence: RLEEEEAAAEK, peptide start residue: 56)",-0.429
7,"HP1BP3 (peptide sequence: LGEKVEDSTMPIRR, peptide start residue: 30) (UniProt Q5SSJ5)",-0.259
8,"LIN9 (peptide sequence: RRCEEEAQEIVR, peptide start residue: 433) (UniProt Q5TKA1)",0.659
9,"UniProt Q5T011 (peptide sequence: LFNEHLVSASSNPALALRR, peptide start residue: 369)",-0.683
10,"COQ5 (peptide sequence: VYQVFESVAK, peptide start residue: 68) (UniProt Q5HYK3)",0.12
11,"ARHGAP21 (peptide sequence: TQSPHSPKEESER, peptide start residue: 1094) (UniProt Q5T5U3)",-0.194
12,"UniProt Q4VXU2 (peptide sequence: CFGFVNFEKHEEAQK, peptide start residue: 232)",-0.302
13,"VPS26B (peptide sequence: KSMSHQAAIASQR, peptide start residue: 301) (UniProt Q4G0F5)",-0.161
14,"C19orf54 (peptide sequence: LLSGGLGGPNR, peptide start residue: 190) (UniProt Q5BKX5)",0.286
15,"GNAS (peptide sequence: LQEALNLFK, peptide start residue: 909) (UniProt Q5JWF2)",0.305
16,"RRP12 (peptide sequence: MKLQGQFK, peptide start residue: 1267) (UniProt Q5JTH9)",-0.276
17,"UniProt Q3YBR2 (peptide sequence: CLYTCQIK, peptide start residue: 232)",-0.2
18,"UniProt Q5QP82 (peptide sequence: YTEDGCPHKK, peptide start residue: 285)",0.764
19,"VARS2 (peptide sequence: VTPAHSPADAEMGAR, peptide start residue: 393) (UniProt Q5ST30)",-1.26

# From the supplement of paper PMC12819154, “High-throughput peptide-centric local stability assay extends protein–ligand identification to membrane proteins, tissues and bacteria” (Nature Structural & Molecular Biology, 2025)
